Experimental findings from publication PMC11298625 are described below.

Protein sequences, listed by entry. Tags and fused reporters are not part of them.
UniProt A0A9E6GT21, entry or part of it: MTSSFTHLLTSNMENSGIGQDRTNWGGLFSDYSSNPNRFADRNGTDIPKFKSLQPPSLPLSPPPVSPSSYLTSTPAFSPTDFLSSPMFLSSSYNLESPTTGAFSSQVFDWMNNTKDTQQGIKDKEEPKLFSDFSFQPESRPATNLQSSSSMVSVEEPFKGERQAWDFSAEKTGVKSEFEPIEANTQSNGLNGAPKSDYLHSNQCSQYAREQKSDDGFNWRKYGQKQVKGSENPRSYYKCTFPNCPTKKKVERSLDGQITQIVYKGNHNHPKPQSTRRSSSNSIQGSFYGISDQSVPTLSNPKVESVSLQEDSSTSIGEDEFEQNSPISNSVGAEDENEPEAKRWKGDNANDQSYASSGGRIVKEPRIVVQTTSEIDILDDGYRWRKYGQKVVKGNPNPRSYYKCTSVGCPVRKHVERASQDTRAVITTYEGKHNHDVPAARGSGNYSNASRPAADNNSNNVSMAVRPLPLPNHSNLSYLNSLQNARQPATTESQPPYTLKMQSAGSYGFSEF

The exact form of at least one protein or probe is not confirmed. For some of these results: Weaker means in comparison with the reference protein, sequence or condition of that experiment. For some of these results: At least one verdict rests on a figure or table, not on a statement of the authors.

The target of data set [1] is T1, MdWRKY17 (Malus x domestica) (UniProt A0A9E6GT21). As to the kind of experiment: EMSA. To be noted: mutant probe, text states only that specificity was confirmed; Chemiluminescent EMSA Kit (Beyotime); pH and temperature not stated; recombinant protein; protein details: His (pET32a). On the technique in general: In EMSA bound probe runs differently from free probe, usually more slowly.

The target of data set [2] is T1, MdWRKY17 (Malus x domestica). Briefly: competition with a labelled probe. The conditions noted are these: unlabeled 100x cold probe; Chemiluminescent EMSA Kit (Beyotime); pH and temperature not stated; recombinant protein; protein details: His (pET32a); label: biotin.
Another data set relates to MdWRKY17 + MdVQ17. Briefly: EMSA. To be noted: MdVQ17-GST (2x, 3x) enhances MdWRKY17 binding; Chemiluminescent EMSA Kit (Beyotime); pH and temperature not stated; recombinant protein; protein details: His (pET32a),GST; label: biotin.

In the case of “AGGAGTACCTTTAAAAAAACTATATTCAAA (double strand) [MdPL-like-P1-mut]”, the binding result in data set [1] is “binds more weakly”.
Regarding “AATTTAACTAAAAAATTTAACGTCTGACCGTTAAATGGTTAAAG (double strand) [MdPL-like-P2-mut]”, in data set [1], the binding result is “binds more weakly”.
Turning to “AGGAGTACCTTTGGTCAAACTATATTCAAA (double strand) [MdPL-like-P1 probe]”, the binding result in data set [2] was “binds”.
Turning to “AGTTAAAAATTAATTGTTAATTGATTTAACATTTAATTTTAACT (double strand) [MdPL-like-P3-mut]”, the binding result in data set [1] is “binds more weakly”.
“AGTTGACCATTGACCGTTGACTGAGTCAACAGTCAAGGTCAACT (double strand) [MdPL-like-P3 probe]”: the binding result in data set [2] is listed as “binds”.
For “ATATTGTTTTCTGCATTTTTGACTTAATTTTTATAAATTAA (double strand) [MdDMR6 probe]”, in the data set on MdWRKY17 + MdVQ17, the binding result is reported as “binds”.
As for “AAGTCAACTAAAAAAGTCAACGTCTGACCGTTGACTGGTCAAAG (double strand) [MdPL-like-P2 probe]”, in data set [2], the binding result is reported as “binds”.
